Data source: PubChem BioAssay AID686938 (Drosophila RNAi Screening Center, 2013)

Aim: 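Knock-downs reducing store-operated calcium influx in Drosophila cells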 (primary screen)
Cells: Drosophila S2R+ cells
Reagent: long dsRNA against Drosophila genes, about 0.25 µg dsRNA per well, roughly 10,000 cells
Duration: 5 days of knock-down before the calcium assay
Treatment: thapsigargin (SERCA pump blocker) to empty calcium stores; entry signal taken 4 min after adding it
Measurement: 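Duplicate raw fluo-4 intensities per well from a plate reader, at rest and four minutes after thapsigargin emptied calcium stores; entry-to-rest ratio filled for only some wells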
Scale: calcium entry signal: higher = stronger calcium signal after store depletion; resting calcium signal: higher = higher resting calcium signal
Call rule: 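Hit if the duplicate-averaged plate z-score for entry over resting signal is under −3; wells with weak total dye signal (Fmax z < −2) or more than 5 off-targets removed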
Meaning of the calls: active = strongly reduced calcium entry; inactive = no strong reduction
The deposit covers about 23,000 reagents; below is a random part of those with a known target gene and a result. In the full data, 75 (0.33%) were called active. 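Raw plate signals without normalisation; calls rest on plate z-scores that were not deposited; ratio present for only 364 wells.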 A number with no mark means an inactive call. Reagents against one gene are numbered here. A plus sign joins genes that one reagent is predicted to hit. The record does not give: the dose of the treatment.

target gene	reagent no.	calcium entry signal, replicate 1 (fluorescence units)	calcium entry signal, replicate 2 (fluorescence units)	resting calcium signal, replicate 1 (fluorescence units)	resting calcium signal, replicate 2 (fluorescence units)
Rbbp5	1	2.13e7	2.90e7	1.02e7	1.33e7
ms(3)K81	1	2.69e7	4.50e7	1.42e7	1.97e7
roq	1	3.84e7	4.79e7	1.69e7	3.04e7
Bet5	1	2.99e7	3.07e7	1.54e7	1.49e7
Twdlbeta	1	3.62e7	4.85e7	1.94e7	2.03e7
Cyp12d1-d + Cyp12d1-p	1	2.48e7	3.24e7	1.41e7	1.64e7
COX6AL2	1	1.96e7	3.17e7	9.51e6	1.50e7
CG31347	1	2.87e7	3.52e7	1.70e7	1.55e7
CG11052	1	5.01e7	4.34e7	2.41e7	2.00e7
NAAT1	1	1.90e7	2.22e7	1.02e7	1.07e7
CG13390	1	2.54e7	5.61e7	1.32e7	2.17e7
Cec-Psi1	1	3.81e7	9.68e7	1.71e7	4.53e7
CG45067	1	3.51e7	4.02e7	1.76e7	1.93e7
Gem3	1	1.76e7	2.13e7	1.06e7	1.11e7
Etfb	1	2.97e7	3.82e7	1.38e7	1.82e7
CCT8	1	2.69e7	2.44e7	1.60e7	1.36e7
CG1537	1	3.31e7	5.26e7	1.70e7	2.52e7
Cpr49Ae	1	2.28e7	4.03e7	1.19e7	1.97e7
GstD7	1	2.75e7	2.00e7	1.39e7	1.02e7
CG14693	1	3.54e7	3.71e7	1.67e7	1.69e7
CG7910	1	4.65e7	3.23e7	2.24e7	1.63e7

Reprinted from above, 6 entries:
target gene	reagent no.	calcium entry signal, replicate 1 (fluorescence units)	calcium entry signal, replicate 2 (fluorescence units)	resting calcium signal, replicate 1 (fluorescence units)	resting calcium signal, replicate 2 (fluorescence units)
Cec-Psi1	1	3.81e7	9.68e7	1.71e7	4.53e7
CG45067	1	3.51e7	4.02e7	1.76e7	1.93e7
Gem3	1	1.76e7	2.13e7	1.06e7	1.11e7
Etfb	1	2.97e7	3.82e7	1.38e7	1.82e7
CCT8	1	2.69e7	2.44e7	1.60e7	1.36e7
CG1537	1	3.31e7	5.26e7	1.70e7	2.52e7

Additional reagents follow.
target gene	reagent no.	calcium entry signal, replicate 1 (fluorescence units)	calcium entry signal, replicate 2 (fluorescence units)	resting calcium signal, replicate 1 (fluorescence units)	resting calcium signal, replicate 2 (fluorescence units)
CG6254	1	4.10e7	5.33e7	1.84e7	2.20e7
Neurochondrin	1	4.36e7	4.97e7	1.76e7	2.07e7
Helz	1	2.86e7	4.43e7	1.35e7	2.71e7
FucTA	1	3.73e7	5.76e7	1.93e7	2.24e7
elgi	1	3.85e7	4.78e7	1.79e7	3.21e7
CG6276	1	3.66e7	4.91e7	1.54e7	2.08e7
CG11034	1	2.65e7	2.78e7	1.33e7	1.32e7
CG11034	2	2.79e7	2.41e7	1.39e7	1.32e7
Rpt1	1	1.18e7	1.22e7	8.52e6	7.79e6
Scox	1	3.86e7	3.82e7	1.99e7	1.86e7
antr	1	1.86e7	2.22e7	1.04e7	9.26e6
CG3408	1	2.69e7	3.51e7	1.30e7	1.36e7
Bub3	1	2.32e7	2.80e7	1.28e7	1.59e7
Dnaaf5	1	2.51e7	2.25e7	1.23e7	1.16e7
CG12012	1	2.85e7	3.78e7	1.44e7	1.69e7
myo	1	4.64e7	4.66e7	2.02e7	2.12e7
Orco	1	4.58e7	4.20e7	2.12e7	1.88e7
MED16	1	4.54e7	5.67e7	2.41e7	2.43e7
Cfp1	1	3.33e7	3.81e7	1.70e7	1.96e7
